Assay: Recovery from blood sample treatment (HPLC-UV), ratio to internal standard
Design: species or system rat
Details: internal standard 4,4′-dihydroxybiphenyl

SMILES	recovery expressed as ratio to the recovery of internal standard
COCCOCCOCCNC(=O)Oc1ccc(/C=C/c2cc(OC(=O)NCCOCCOCCOC)cc(OC(=O)NCCOCCOCCOC)c2)cc1 [Compound 2, (E)-5-(4-(2-(2-(2-Methoxyethoxy)ethoxy)ethyl)carbamate)-1,3-phenylene bis((2-(2-(2-methoxyethoxy)ethoxy)ethyl)carbamate)]	0.914 ± 0.116
COCCOCCOCCOCCNC(=O)Oc1ccc(/C=C/c2cc(OC(=O)NCCOCCOCCOCCOC)cc(OC(=O)NCCOCCOCCOCCOC)c2)cc1 [Compound 3, (E)-5-(4-(5,8,11-Tetraoxatridecan-13-ylcarbamate)styryl)-1,3-phenylene bis(2,5,8,11-tetraoxatridecan-13-ylcarbamate)]	0.903 ± 0.104
COCCOCCOCCOCCOCCOCCNC(=O)Oc1ccc(/C=C/c2cc(OC(=O)NCCOCCOCCOCCOCCOCCOC)cc(OC(=O)NCCOCCOCCOCCOCCOCCOC)c2)cc1 [Compound 4, (E)-5-(4-(2,5,8,11,14,17-Hexaoxanonadecan-19-ylcarbamate)styryl)-1,3-phenylene bis(2,5,8,11,14,17-hexaoxanonadecan-19-ylcarbamate)]	0.967 ± 0.100

Reference: publication PMC6332312, “N-Monosubstituted Methoxy-oligo(ethylene glycol) Carbamate Ester Prodrugs of Resveratrol” (Molecules, 2015)
